Results deposited as PubChem BioAssay AID1508587 (Peter MacCallum Cancer Centre, 2020).
Assay: 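Knockdowns that add to vemurafenib's cut in melanoma glycolysis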 (follow-up of hits). Cell system: human WM266.4 melanoma cells with a BRAF V600 mutation. Reagents: single siRNA against human genes, 25 nM. Duration: 96 h. Challenge: vemurafenib 300 nM (about IC25), given 48 h after transfection for 48 h. Detection: 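Per-cell lactate from absorbance divided by DAPI nucleus counts, compared with and without vemurafenib, relative to non-targeting siRNA, mean of 2 replicates; nuclear counts also give cell number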. Reading the numbers: lactate per cell, drug vs no drug: higher = less drug-induced drop in lactate per cell; lactate per cell with vemurafenib: higher = more lactate per cell under drug; lactate per cell without drug: higher = more lactate per cell without drug; cell growth with vemurafenib and cell growth without drug: higher = more cell growth over 48 h. Rule for the call: 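a duplex is active when its lactate-per-cell ratio with versus without drug falls under 0.55, i.e. 2 SD below non-targeting; a gene is confirmed if 2 or more of 4 duplexes pass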.
In all, the deposit lists about 1,600 reagents; shown is a random part of them. In the full data, 623 (39%) are marked active. 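Calls are for each duplex; lactate ratios contain extreme outliers.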

no.	target gene	PubChem SID	lactate per cell, drug vs no drug	lactate per cell with vemurafenib	lactate per cell without drug	cell growth with vemurafenib	cell growth without drug	outcome
1	ESS2 (ess-2 spliceosome associated protein)	SID134256085	0.64	2	1.94	0.49	0.31	inactive
2	ESS2 (ess-2 spliceosome associated protein)	SID134256087	0.33	1.17	2.17	0	0.04	active
3	ESS2 (ess-2 spliceosome associated protein)	SID152148368	0.64	1.29	1.25	0.52	0.54	inactive
4	ESS2 (ess-2 spliceosome associated protein)	SID152150943	0.65	1.17	1.1	0.4	0.6	inactive
5	PRXL2C (peroxiredoxin like 2C)	SID134295557	0.6	1.42	1.64	0.65	0.38	inactive
6	PRXL2C (peroxiredoxin like 2C)	SID134295558	0.64	1.88	2	0.26	0.19	inactive
7	PRXL2C (peroxiredoxin like 2C)	SID134295559	1.06	2.66	1.79	-0.09	0.04	inactive
8	PRXL2C (peroxiredoxin like 2C)	SID134295560	0.52	0.84	1.1	0.18	0.09	active
9	PCIF1 (phosphorylated CTD interacting factor 1)	SID134262125	0.7	1.56	1.62	0.03	0.12	inactive
10	PCIF1 (phosphorylated CTD interacting factor 1)	SID134262126	0.96	1.7	1.28	0.09	0.53	inactive
11	PCIF1 (phosphorylated CTD interacting factor 1)	SID134262127	0.55	1.06	1.38	0.33	0.17	inactive
12	PCIF1 (phosphorylated CTD interacting factor 1)	SID134262128	0.84	0.98	0.87	1.05	1.38	inactive
13	THSD1 (thrombospondin type 1 domain containing 1)	SID134288761	0.45	1.17	1.58	0.27	0.28	active
14	THSD1 (thrombospondin type 1 domain containing 1)	SID134288762	0.6	1.46	1.5	0.06	0.13	inactive
15	THSD1 (thrombospondin type 1 domain containing 1)	SID134288763	0.57	0.88	0.96	0.27	0.58	inactive
16	THSD1 (thrombospondin type 1 domain containing 1)	SID134288764	0.48	1.44	1.86	0.13	0.26	active
17	NAA40 (N-alpha-acetyltransferase 40, NatD catalytic subunit)	SID134264109	0.56	1.14	1.29	0.69	0.6	inactive
18	NAA40 (N-alpha-acetyltransferase 40, NatD catalytic subunit)	SID134264110	0.56	0.98	1.08	1.01	0.84	inactive
19	NAA40 (N-alpha-acetyltransferase 40, NatD catalytic subunit)	SID134264111	0.64	1.5	1.49	-0.19	-0.03	inactive
20	NAA40 (N-alpha-acetyltransferase 40, NatD catalytic subunit)	SID134264112	0.74	0.96	0.83	0.45	0.58	inactive
21	BEST1 (bestrophin 1)	SID134284077	0.67	1.32	1.24	0.46	0.43	inactive
22	BEST1 (bestrophin 1)	SID134284078	0.64	2.54	2.65	-0.03	-0.04	inactive
23	BEST1 (bestrophin 1)	SID134284079	0.57	0.66	0.73	0.32	0.67	inactive
24	BEST1 (bestrophin 1)	SID152152153	0.52	1.33	1.59	0.92	0.56	active
25	CPNE1 (copine 1)	SID134253241	0.6	1.91	1.96	-0.01	0.05	inactive
26	CPNE1 (copine 1)	SID134253242	0.26	0.65	1.56	0.17	0.09	active
27	CPNE1 (copine 1)	SID134253243	0.57	1.27	1.43	0.46	0.49	inactive
28	CPNE1 (copine 1)	SID134253244	1	2.66	1.67	0.24	0.37	inactive
29	CCZ1 (CCZ1 vacuolar protein trafficking and biogenesis associated)	SID135616595	0.62	1.77	1.93	0.35	0.17	inactive
30	CCZ1 (CCZ1 vacuolar protein trafficking and biogenesis associated)	SID135616596	0.83	0.84	0.68	0.74	1.06	inactive
31	CCZ1 (CCZ1 vacuolar protein trafficking and biogenesis associated)	SID135616597	0.42	0.76	1.22	0.25	0.15	active
32	CCZ1 (CCZ1 vacuolar protein trafficking and biogenesis associated)	SID135616598	0.7	1.07	1.04	1.13	0.99	inactive
33	TGM6 (transglutaminase 6)	SID134296921	0.38	0.88	1.36	0.48	0.48	active
34	TGM6 (transglutaminase 6)	SID134296922	0.59	1.08	1.08	0.84	0.76	inactive
35	TGM6 (transglutaminase 6)	SID134296923	0.31	0.48	0.9	0.72	0.67	active
36	TGM6 (transglutaminase 6)	SID134296924	-1.02	-0.45	0.32	0.03	0.14	active
37	FAAH (fatty acid amide hydrolase)	SID134248121	0.87	1.58	1.18	0.43	0.25	inactive
38	FAAH (fatty acid amide hydrolase)	SID134248122	0.4	0.45	0.74	0.57	0.81	active
39	FAAH (fatty acid amide hydrolase)	SID134248124	0.77	2.72	2.31	0.11	0.21	inactive
40	FAAH (fatty acid amide hydrolase)	SID135613072	0.76	2	1.71	0.49	0.47	inactive
41	C5orf22 (chromosome 5 open reading frame 22)	SID134289029	0.64	1.75	1.87	0.39	0.31	inactive
42	C5orf22 (chromosome 5 open reading frame 22)	SID134289030	0.54	1.71	2.15	0.43	0.11	active
43	C5orf22 (chromosome 5 open reading frame 22)	SID134289031	0.7	2.41	2.43	-0.09	-0.05	inactive
44	C5orf22 (chromosome 5 open reading frame 22)	SID134289032	0.67	1.17	1.21	0.36	0.49	inactive
45	ZNF397 (zinc finger protein 397)	SID134265553	0.53	0.5	0.68	1.35	1.56	active
46	ZNF397 (zinc finger protein 397)	SID134265554	0.48	1.43	2.15	0.41	0.26	active
47	ZNF397 (zinc finger protein 397)	SID134265555	0.85	2.02	1.79	0.18	0.24	inactive
48	ZNF397 (zinc finger protein 397)	SID134265556	0.52	0.57	0.8	0.4	0.6	active
49	ATXN2L (ataxin 2 like)	SID134260209	0.44	0.98	1.53	0.21	0.33	active
50	ATXN2L (ataxin 2 like)	SID134260210	0.88	2.29	1.77	-0.07	0.06	inactive
51	ATXN2L (ataxin 2 like)	SID134260211	0.43	1.04	1.66	0.31	0.18	active
52	ATXN2L (ataxin 2 like)	SID134260212	0.29	0.34	0.92	0.27	0.21	active

An excerpt from above, showing only “lactate per cell, drug vs no drug”:
TGM6 (transglutaminase 6) [SID134296923]: 0.31
TGM6 (transglutaminase 6) [SID134296924]: -1.02
FAAH (fatty acid amide hydrolase) [SID134248121]: 0.87
FAAH (fatty acid amide hydrolase) [SID134248122]: 0.4
FAAH (fatty acid amide hydrolase) [SID134248124]: 0.77
FAAH (fatty acid amide hydrolase) [SID135613072]: 0.76
C5orf22 (chromosome 5 open reading frame 22) [SID134289029]: 0.64
C5orf22 (chromosome 5 open reading frame 22) [SID134289030]: 0.54
